Measurements as given in the M2OR odorant receptor database.
Only a part is listed here, and it is no random draw. Calls are pooled over several reports, among them a noisy single-well screen. The list shows a part of the results.

Tests used:
Conditions in all cases: stereoisomer not certain
OR5T2 [1] = test system: T1, OR5T2
T1 sequence (whole entry): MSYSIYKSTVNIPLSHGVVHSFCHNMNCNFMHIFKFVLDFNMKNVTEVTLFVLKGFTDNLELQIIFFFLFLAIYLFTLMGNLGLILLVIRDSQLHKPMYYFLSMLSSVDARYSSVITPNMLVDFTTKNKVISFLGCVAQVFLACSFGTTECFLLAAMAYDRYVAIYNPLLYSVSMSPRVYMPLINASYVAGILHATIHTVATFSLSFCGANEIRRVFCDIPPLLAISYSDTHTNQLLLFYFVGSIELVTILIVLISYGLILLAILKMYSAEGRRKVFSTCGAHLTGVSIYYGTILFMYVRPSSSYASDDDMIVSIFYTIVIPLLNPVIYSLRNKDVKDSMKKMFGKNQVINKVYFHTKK
Method in brief: (§1)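 Values were gathered from published papers (main text and supplementary material), with extra details requested from the original authors when needed, and checked for typos and inconsistencies. Each receptor–molecule pair is called responsive (active) if the original authors judged the measured signal statistically different from baseline, and non-responsive (inactive) otherwise. Assay methods varied by source, often transient mammalian cell-line luciferase assays. Recorded details include cell line, G-protein, co-transfected protein and tags.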

OR5T2 [2] = test system: T2, OR5T2; remark: listed apart in the source
T2 sequence (whole entry): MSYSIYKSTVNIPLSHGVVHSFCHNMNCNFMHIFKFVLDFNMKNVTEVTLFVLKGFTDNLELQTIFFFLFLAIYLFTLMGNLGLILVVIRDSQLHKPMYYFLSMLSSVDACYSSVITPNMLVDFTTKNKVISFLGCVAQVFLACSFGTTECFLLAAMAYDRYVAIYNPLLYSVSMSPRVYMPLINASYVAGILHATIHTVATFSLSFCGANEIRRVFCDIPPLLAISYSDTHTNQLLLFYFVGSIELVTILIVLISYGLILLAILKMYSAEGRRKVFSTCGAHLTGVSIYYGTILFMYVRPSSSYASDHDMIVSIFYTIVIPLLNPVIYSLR
Method in brief: as §1

OR5T3 = test system: T3, OR5T3
T3 sequence (whole entry): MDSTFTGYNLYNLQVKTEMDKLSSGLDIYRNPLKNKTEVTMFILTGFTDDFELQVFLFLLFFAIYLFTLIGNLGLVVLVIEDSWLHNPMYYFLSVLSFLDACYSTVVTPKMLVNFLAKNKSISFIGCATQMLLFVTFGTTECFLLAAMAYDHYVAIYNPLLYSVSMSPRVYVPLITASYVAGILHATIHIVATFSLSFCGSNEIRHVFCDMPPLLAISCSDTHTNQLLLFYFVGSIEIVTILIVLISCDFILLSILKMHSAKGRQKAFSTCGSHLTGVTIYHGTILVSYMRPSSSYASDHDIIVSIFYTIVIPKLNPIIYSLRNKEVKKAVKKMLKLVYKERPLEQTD
Method in brief: as §1

OR5V1 (Homo sapiens) = target: T4, OR5V1 (Homo sapiens) (UniProt Q9UGF6)
T4 sequence (whole entry): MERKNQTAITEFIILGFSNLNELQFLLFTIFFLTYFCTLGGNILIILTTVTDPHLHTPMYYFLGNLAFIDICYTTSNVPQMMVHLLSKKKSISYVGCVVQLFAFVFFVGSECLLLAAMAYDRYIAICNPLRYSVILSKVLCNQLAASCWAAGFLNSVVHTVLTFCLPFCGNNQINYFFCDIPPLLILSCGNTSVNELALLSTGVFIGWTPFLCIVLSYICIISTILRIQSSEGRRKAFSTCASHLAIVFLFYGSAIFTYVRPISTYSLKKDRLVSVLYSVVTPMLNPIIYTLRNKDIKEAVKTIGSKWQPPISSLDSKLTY
Method in brief: as §1

OR5W2 = test system: T5, OR5W2
T5 sequence (whole entry): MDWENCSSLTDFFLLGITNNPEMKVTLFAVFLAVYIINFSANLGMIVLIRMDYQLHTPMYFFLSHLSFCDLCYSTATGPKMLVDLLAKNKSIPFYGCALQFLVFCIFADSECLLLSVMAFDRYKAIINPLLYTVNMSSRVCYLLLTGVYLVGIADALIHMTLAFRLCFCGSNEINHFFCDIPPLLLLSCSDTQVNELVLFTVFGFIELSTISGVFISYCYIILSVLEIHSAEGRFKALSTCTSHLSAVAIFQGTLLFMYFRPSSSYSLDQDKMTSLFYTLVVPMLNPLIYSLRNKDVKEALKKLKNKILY
Method in brief: as §1

OR6A2 (Homo sapiens) = target: T6, OR6A2 (Homo sapiens) (UniProt O95222)
T6 sequence (whole entry): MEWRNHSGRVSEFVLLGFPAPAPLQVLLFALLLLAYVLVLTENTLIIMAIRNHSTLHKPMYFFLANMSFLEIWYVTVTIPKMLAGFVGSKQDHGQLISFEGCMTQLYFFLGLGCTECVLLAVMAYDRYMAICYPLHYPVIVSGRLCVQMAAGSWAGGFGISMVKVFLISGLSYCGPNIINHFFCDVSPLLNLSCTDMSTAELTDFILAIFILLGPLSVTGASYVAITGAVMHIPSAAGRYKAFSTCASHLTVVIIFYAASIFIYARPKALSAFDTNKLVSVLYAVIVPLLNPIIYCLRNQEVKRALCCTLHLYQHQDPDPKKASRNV
Method in brief: as §1

OR6B1 = test system: T7, OR6B1
T7 sequence (whole entry): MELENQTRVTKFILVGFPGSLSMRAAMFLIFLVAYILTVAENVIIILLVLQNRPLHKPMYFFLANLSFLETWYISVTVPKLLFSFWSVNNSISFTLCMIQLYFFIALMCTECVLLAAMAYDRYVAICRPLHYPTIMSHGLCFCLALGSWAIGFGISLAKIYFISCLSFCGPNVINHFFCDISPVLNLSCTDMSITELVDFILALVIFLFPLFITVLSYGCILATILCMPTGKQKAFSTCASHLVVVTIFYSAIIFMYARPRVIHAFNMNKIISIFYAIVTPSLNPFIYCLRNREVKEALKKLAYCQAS
Method in brief: as §1

OR6B2 = test system: T8, OR6B2
T8 sequence (whole entry): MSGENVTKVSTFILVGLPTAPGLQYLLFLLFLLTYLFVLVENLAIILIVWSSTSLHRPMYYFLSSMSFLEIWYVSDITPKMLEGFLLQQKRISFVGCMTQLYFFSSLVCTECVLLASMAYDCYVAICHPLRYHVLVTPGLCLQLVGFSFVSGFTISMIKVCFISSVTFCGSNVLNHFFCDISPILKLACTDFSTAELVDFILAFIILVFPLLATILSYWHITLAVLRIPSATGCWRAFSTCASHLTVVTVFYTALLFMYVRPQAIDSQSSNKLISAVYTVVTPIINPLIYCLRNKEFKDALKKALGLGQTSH
Method in brief: as §1

OR6B3 = test system: T9, OR6B3
T9 sequence (whole entry): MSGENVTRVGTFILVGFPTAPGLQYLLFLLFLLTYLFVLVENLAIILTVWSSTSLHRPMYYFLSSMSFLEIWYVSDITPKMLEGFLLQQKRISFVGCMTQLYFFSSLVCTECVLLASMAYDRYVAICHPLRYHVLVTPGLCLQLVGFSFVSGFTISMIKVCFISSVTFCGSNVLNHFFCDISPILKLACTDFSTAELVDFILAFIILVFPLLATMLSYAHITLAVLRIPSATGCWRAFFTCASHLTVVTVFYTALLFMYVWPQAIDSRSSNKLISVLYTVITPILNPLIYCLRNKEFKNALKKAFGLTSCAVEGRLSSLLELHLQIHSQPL
Method in brief: as §1

OR6C1 = test system: T10, OR6C1
T10 sequence (whole entry): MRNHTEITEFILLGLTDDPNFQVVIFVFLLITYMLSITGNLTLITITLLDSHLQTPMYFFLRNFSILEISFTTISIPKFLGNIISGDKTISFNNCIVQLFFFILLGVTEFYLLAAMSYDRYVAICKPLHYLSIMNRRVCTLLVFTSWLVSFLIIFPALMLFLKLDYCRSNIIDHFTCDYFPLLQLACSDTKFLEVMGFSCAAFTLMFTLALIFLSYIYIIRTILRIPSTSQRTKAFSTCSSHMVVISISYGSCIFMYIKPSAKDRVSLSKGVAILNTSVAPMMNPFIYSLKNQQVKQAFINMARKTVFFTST
Method in brief: as §1

Measured: odorant receptor agonist call

CS
inactive: all assays above
